Test results as given in publication PMC11555385.
These are yes or no findings as the source states them, for the method shown. Binding seen in cells or lysates may run through a third protein. Some entries that bind do so weakly or less than the wild type. One block for each molecule: values may come before it.

Chains of the proteins cited; added tags and fusions are not shown.
UniProt P07355: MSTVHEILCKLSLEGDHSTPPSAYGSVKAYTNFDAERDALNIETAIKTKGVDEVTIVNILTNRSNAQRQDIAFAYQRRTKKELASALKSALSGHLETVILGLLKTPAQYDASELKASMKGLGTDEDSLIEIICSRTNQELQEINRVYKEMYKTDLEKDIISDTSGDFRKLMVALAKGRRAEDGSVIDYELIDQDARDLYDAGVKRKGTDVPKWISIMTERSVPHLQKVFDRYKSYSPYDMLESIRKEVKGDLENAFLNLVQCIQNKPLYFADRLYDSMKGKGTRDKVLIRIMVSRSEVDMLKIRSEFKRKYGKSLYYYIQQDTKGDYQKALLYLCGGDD

Target: T1, CDC25A (human (endogenous in HeLa)) (UniProt P30304)
T1 sequence: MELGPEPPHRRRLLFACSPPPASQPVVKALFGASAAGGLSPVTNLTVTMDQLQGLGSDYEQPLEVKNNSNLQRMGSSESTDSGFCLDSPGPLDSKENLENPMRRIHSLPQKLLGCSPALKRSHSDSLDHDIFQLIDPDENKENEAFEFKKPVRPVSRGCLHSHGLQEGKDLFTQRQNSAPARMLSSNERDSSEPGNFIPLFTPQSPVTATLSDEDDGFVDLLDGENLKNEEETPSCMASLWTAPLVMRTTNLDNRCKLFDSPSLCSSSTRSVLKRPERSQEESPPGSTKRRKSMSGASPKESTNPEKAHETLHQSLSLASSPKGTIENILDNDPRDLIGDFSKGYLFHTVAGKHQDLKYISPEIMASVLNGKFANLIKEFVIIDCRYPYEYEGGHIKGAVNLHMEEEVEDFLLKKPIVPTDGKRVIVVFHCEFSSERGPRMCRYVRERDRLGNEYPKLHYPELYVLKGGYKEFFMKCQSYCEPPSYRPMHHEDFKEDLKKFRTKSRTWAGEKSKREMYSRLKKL
Test: proximity ligation; PLA in HeLa cells with different densities; red dots, fluorescent intensity normalized by nuclear number

binding: binds
Molecule: Annexin A2 (from UniProt P07355 1-339)

binding: binds
B1: Annexin A1 (protein, UniProt P04083 1-346)
chain: MAMVSEFLKQAWFIENEEQEYVQTVKSSKGGPGSAVSPYPTFNPSSDVAALHKAIMVKGVDEATIIDILTKRNNAQRQQIKAAYLQETGKPLDETLKKALTGHLEEVVLALLKTPAQFDADELRAAMKGLGTDEDTLIEILASRTNKEIRDINRVYREELKRDLAKDITSDTSGDFRNALLSLAKGDRSEDFGVNEDLADSDARALYEAGERRKGTDVNVFNTILTTRSYPQLRRVFQKYTKYSKHDMNKVLDLELKGDIEKCLTAIVKCATSKPAFFAEKLHQAMKGVGTRHKALIRIMVSRSEIDMNDIKAFYQKMYGISLCQAILDETKGDYEKILVALCGGN
